# At least one compound was matched to its structure with a doubt left.
# Assay: Hydrophobicity by relative elution time from a C18 HPLC column
# Type: physicochemical
# Conditions: acetonitrile/water gradient 50:50 to 90:10, 1 mL/min, column temperature 35° C.
# Text: To increase the penetration and retention of a drug released from a device such as a stent into the vascular wall or wall of other vessel or tissue, several drugs were modified to increase their hydrophobicity. […] […] The longer the elution time, the more hydrophobic the compound.
row,SMILES,HPLC retention time (min) Condition 2 [min]
1,COc1cc2c(c(OC)c1OC)-c1ccc(SC)c(=O)cc1[C@@H](NC(=O)CCCCCCCCC(=O)N[C@H]1CCc3cc(OC)c(OC)c(OC)c3-c3ccc(SC)c(=O)cc31)CC2 [Compound 25],19.3
2,COc1cc2c(c(OC)c1OC)-c1ccc(SC)c(=O)cc1[C@@H](NC(=O)CCNC(=O)N[C@H]1CCc3cc(OC)c(OC)c(OC)c3-c3ccc(SC)c(=O)cc31)CC2 [Compound 24],12.8
3,COc1cc2c(c(OC)c1OC)-c1ccc(SC)c(=O)cc1[C@@H](NC(=O)C1CCCC(C(=O)N[C@H]3CCc4cc(OC)c(OC)c(OC)c4-c4ccc(SC)c(=O)cc43)C1)CC2 (some centres unmarked) [Compound 27],9.1
4,COc1cc2c(c(OC)c1OC)-c1ccc(SC)c(=O)cc1[C@@H](NC(=O)c1cncc(C(=O)N[C@H]3CCc4cc(OC)c(OC)c(OC)c4-c4ccc(SC)c(=O)cc43)c1)CC2 [Compound 26],11.6
5,"CC(=O)OC12COC1CC(O)C1(C)C(=O)C(O)C3=C(C)C(OC(=O)C(OC(=O)c4ccccc4)C(NC(=O)OC(C)(C)C)c4ccccc4)CC(O)(C(OC(=O)c4ccccc4)C21)C3(C)C (centres unmarked) [Compound 2, 2′ BENZOYL DOCETAXEL]",22.3

# — patent US20180318473A1, “DRUGS WITH IMPROVED HYDROPHOBICITY FOR INCORPORATION IN MEDICAL DEVICES” (Abraxis BioScience, LLC, priority 2005, published 2018)
